PubChem BioAssay AID743454 – Peter MacCallum Cancer Centre – 2014

Aim: 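Search for knock-downs that restore vorinostat killing in resistant colon cancer cells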 (primary screen)
Cell system: human HCT116-VR colon cancer cells, selected for vorinostat resistance
Reagents: siRNA pool against human genes, 40 nM siRNA pool
Duration: vorinostat for 24 h, read-out about 72 h after transfection
Treatment: vorinostat at 2.5 µM final
Measured: 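Cell viability by CellTiter-Fluor and caspase 3/7 activity by luminescence, each scaled to mock wells per plate, duplicates averaged, then robust z-scored over all plates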
Scale: viability robust z-score: higher = more viable cells than screen typical; caspase robust z-score: higher = more caspase 3/7 activity than screen typical
Active means: 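Hits are knock-downs in viability class RV1/RV2 or caspase class CA1/CA2, excluding ones that killed cells in the no-drug cell-count arm; hits then retested with single siRNAs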
The deposit covers about 18,000 reagents; below is an unselected part. In the full data, 450 (2.5%) got an active call. 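Single biological run; no consistent viability z cut-off exists, so the class columns, not z-scores, define the calls.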 A number with no mark means an inactive call.

How did the screen score IFNW1?
viability hit class: RV2 (reduced viability) (active); caspase hit class: CA2 (caspase activation); viability robust z-score: -3.78; caspase robust z-score: 5.69

What did the screen give for ASMT?
viability hit class: no change; caspase hit class: no change; viability robust z-score: 0.24; caspase robust z-score: 3.07

What is on record for GRIA1?
viability hit class: no change; caspase hit class: no change; viability robust z-score: 0.26; caspase robust z-score: 0.15

With EVC, what does the deposit list?
viability hit class: no change; caspase hit class: no change; viability robust z-score: -0.53; caspase robust z-score: 0.28

How did the screen score TCF25?
viability hit class: no change; caspase hit class: no change; viability robust z-score: -0.68; caspase robust z-score: -0.85

For AGFG1, what was measured?
viability hit class: no change; caspase hit class: no change; viability robust z-score: -0.44; caspase robust z-score: 0.36

For FGF22, how do the results read?
viability hit class: no change; caspase hit class: no change; viability robust z-score: -0.76; caspase robust z-score: -0.84

For RPL38, what does the deposit list?
viability hit class: no change; caspase hit class: no change; viability robust z-score: -4.18; caspase robust z-score: -1.19

With SAMTOR, what does the deposit list?
viability hit class: no change; caspase hit class: no change; viability robust z-score: -1.39; caspase robust z-score: -0.09

With C4A, what was measured?
viability hit class: no change; caspase hit class: no change; viability robust z-score: -1.2; caspase robust z-score: -0.76

With CCL1, how do the results read?
viability hit class: no change; caspase hit class: no change; viability robust z-score: -0.16; caspase robust z-score: -0.4

Which result is listed for FHL2?
viability hit class: no change; caspase hit class: no change; viability robust z-score: -0.38; caspase robust z-score: 0.37

For PRRT2, what does the deposit list?
viability hit class: no change; caspase hit class: no change; viability robust z-score: -0.68; caspase robust z-score: 0.88

What is on record for APOC2?
viability hit class: no change; caspase hit class: no change; viability robust z-score: -0.15; caspase robust z-score: 1.05

Which result is listed for AGBL5?
viability hit class: no change; caspase hit class: no change; viability robust z-score: -1.91; caspase robust z-score: 1.95

With DACH1, what does the deposit list?
viability hit class: no change; caspase hit class: no change; viability robust z-score: -0.15; caspase robust z-score: -0.07

For MDC1, what does the deposit list?
viability hit class: no change; caspase hit class: no change; viability robust z-score: 0.87; caspase robust z-score: 0.75

What is on record for JUND?
viability hit class: no change; caspase hit class: no change; viability robust z-score: -1.35; caspase robust z-score: 1.16

How did the screen score ASIC1?
viability hit class: no change; caspase hit class: no change; viability robust z-score: -2.01; caspase robust z-score: 2.86

What did the screen give for LUZP1?
viability hit class: no change; caspase hit class: no change; viability robust z-score: -0.44; caspase robust z-score: 0.22

For OR6B2, how do the results read?
viability hit class: no change; caspase hit class: no change; viability robust z-score: -0.68; caspase robust z-score: -0.26
